PubChem BioAssay AID1259405 | NCATS, 2018

Aim: 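Knock-downs that lift recombinant protein yield in hamster ovary cells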 (primary screen)
Cell system: Chinese hamster CHO-K1 ovary cells with stable secreted eGFP expression
Knock-down reagent: single siRNA against mouse genes, 0.8 pmol siRNA per well (2 µl of 400 nM stock)
Duration: 3 days
Detection: 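Percent of the per-plate non-targeting control median for intracellular GFP per well by laser scanning cytometry and for cell viability by ATP luminescence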
Direction: GFP, % of control: higher = more GFP per well, higher productivity; viability (ATP), % of control: higher = more viable cells (more ATP)
Call rule: 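Called active when intracellular GFP, relative to negative control, is at or above 120%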
In all, the deposit lists about 50,000 reagents; below is an unselected part. About 4,000 of them (8%) count as active. 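Mouse siRNA library applied to hamster cells; one well for each siRNA.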 The numbers tell different reagents against one gene apart.

no.	gene knocked down	reagent no.	GFP, % of control	viability (ATP), % of control	activity call
1	Dbn1 (GeneID 56320)	1	102	91.4	inactive
2	Dbn1 (GeneID 56320)	2	71.1	75.8	inactive
3	Dbn1 (GeneID 56320)	3	72.3	71.3	inactive
4	Psmd1 (GeneID 70247)	1	6.37	5.23	inactive
5	Psmd1 (GeneID 70247)	2	6.81	2.11	inactive
6	Psmd1 (GeneID 70247)	3	19.5	26.4	inactive
7	Egr3 (GeneID 13655)	1	87.7	85.1	inactive
8	Egr3 (GeneID 13655)	2	95.7	87.9	inactive
9	Colgalt1 (GeneID 234407)	1	34.3	66.8	inactive
10	Colgalt1 (GeneID 234407)	2	274	86.9	active
11	Colgalt1 (GeneID 234407)	3	66.6	86.9	inactive
12	Lipf (GeneID 67717)	1	105	79.6	inactive
13	Lipf (GeneID 67717)	2	63.4	74.1	inactive
14	Lipf (GeneID 67717)	3	54.1	123	inactive
15	Daxx (GeneID 13163)	1	75.3	103	inactive
16	Daxx (GeneID 13163)	2	78.5	66.3	inactive
17	Sgtb (GeneID 218544)	1	75.8	71.3	inactive
18	Sgtb (GeneID 218544)	2	82.6	73.8	inactive
19	Sgtb (GeneID 218544)	3	66.8	80	inactive
20	Vegfd (GeneID 14205)	1	67.5	65.7	inactive
21	Vegfd (GeneID 14205)	2	85	83.4	inactive
22	Vegfd (GeneID 14205)	3	76.1	67	inactive
23	Tcte2 (GeneID 21646)	1	81.6	37.1	inactive
24	Tcte2 (GeneID 21646)	2	107	103	inactive
25	Tcte2 (GeneID 21646)	3	102	104	inactive
26	Sc5d (GeneID 235293)	1	52.8	97.2	inactive
27	Sc5d (GeneID 235293)	2	87.4	88.7	inactive
28	Sc5d (GeneID 235293)	3	46.6	69.1	inactive
29	Cdkn1a (GeneID 12575)	1	69.8	97.9	inactive
30	Cdkn1a (GeneID 12575)	2	97	84.5	inactive
31	Nyx (GeneID 236690)	1	79.4	66.4	inactive
32	Nyx (GeneID 236690)	2	87.4	89.7	inactive
33	Nyx (GeneID 236690)	3	68.6	72.1	inactive
34	Or4c123 (GeneID 258785)	1	98.3	72	inactive
35	Or4c123 (GeneID 258785)	2	158	59.6	active
36	Or4c123 (GeneID 258785)	3	39.1	87.6	inactive
37	Adam20 (GeneID 384806)	1	163	71.6	active
38	Adam20 (GeneID 384806)	2	70.6	54.9	inactive
39	Adam20 (GeneID 384806)	3	59.2	56	inactive
40	Auts2 (GeneID 319974)	1	72.9	92.2	inactive
41	Auts2 (GeneID 319974)	2	81.6	108	inactive
42	Auts2 (GeneID 319974)	3	43	25.9	inactive
43	Zfp940 (GeneID 233057)	1	80.6	90.3	inactive
44	Zfp940 (GeneID 233057)	2	90	65.8	inactive
45	Zfp940 (GeneID 233057)	3	117	85.9	inactive
46	Cxcl17 (GeneID 232983)	1	86.5	91	inactive
47	Cxcl17 (GeneID 232983)	2	67.1	56.6	inactive
48	Cxcl17 (GeneID 232983)	3	143	159	active
49	Pak3 (GeneID 18481)	1	34.1	48.4	inactive
50	Clec4e (GeneID 56619)	1	58	42.3	inactive
51	Clec4e (GeneID 56619)	2	61.2	82.1	inactive
52	Clec4e (GeneID 56619)	3	65.1	51.5	inactive
53	Atp13a1 (GeneID 170759)	1	84.1	105	inactive
54	Atp13a1 (GeneID 170759)	2	78.2	96.3	inactive
55	Atp13a1 (GeneID 170759)	3	123	94.8	active
56	Tmtc4 (GeneID 70551)	1	90.2	68.1	inactive
57	Tmtc4 (GeneID 70551)	2	57.2	90.2	inactive
58	Tmtc4 (GeneID 70551)	3	62.5	69.2	inactive
59	Prrc2b (GeneID 227723)	1	82.9	59.4	inactive
60	Prrc2b (GeneID 227723)	2	78.3	84.9	inactive
61	Prrc2b (GeneID 227723)	3	88.2	71.4	inactive
62	Zic5 (GeneID 65100)	1	114	94.5	inactive
63	Zic5 (GeneID 65100)	2	84.8	74.3	inactive
64	Il16 (GeneID 16170)	1	64.7	41.4	inactive
65	Il16 (GeneID 16170)	2	36.9	48.8	inactive
66	Il16 (GeneID 16170)	3	139	35.2	active
67	Bcl7c (GeneID 12055)	1	46.9	29.7	inactive
68	Bcl7c (GeneID 12055)	2	75.4	76.6	inactive
69	Bcl7c (GeneID 12055)	3	96.2	101	inactive
70	Psmc3 (GeneID 19182)	1	99.3	107	inactive
71	Psmc3 (GeneID 19182)	2	53.6	45.2	inactive
72	Psmc3 (GeneID 19182)	3	59.3	90.5	inactive
73	Efcab14 (GeneID 230648)	1	75.3	70.7	inactive
74	Efcab14 (GeneID 230648)	2	63.6	70.7	inactive
75	Efcab14 (GeneID 230648)	3	94.6	84.4	inactive
76	Atg16l1 (GeneID 77040)	1	41.1	32.2	inactive
77	Atg16l1 (GeneID 77040)	2	118	104	inactive
78	Atg16l1 (GeneID 77040)	3	34.7	44.9	inactive
79	Kdm5d (GeneID 20592)	1	68.1	105	inactive
80	Kdm5d (GeneID 20592)	2	91.7	86.8	inactive
81	Kdm5d (GeneID 20592)	3	88.9	94.3	inactive
82	Slc26a10 (GeneID 216441)	1	102	87.1	inactive
83	Slc26a10 (GeneID 216441)	2	223	73.5	active
84	Slc26a10 (GeneID 216441)	3	89.2	91.9	inactive
85	Slc26a10 (GeneID 216441)	4	136	85.6	active
86	Slc26a10 (GeneID 216441)	5	115	98.1	inactive
87	Slc26a10 (GeneID 216441)	6	72.7	94.1	inactive

Records above called active, once more:
gene knocked down	reagent no.	GFP, % of control	viability (ATP), % of control	activity call
Colgalt1 (GeneID 234407)	2	274	86.9	active
Or4c123 (GeneID 258785)	2	158	59.6	active
Adam20 (GeneID 384806)	1	163	71.6	active
Cxcl17 (GeneID 232983)	3	143	159	active
Atp13a1 (GeneID 170759)	3	123	94.8	active
Il16 (GeneID 16170)	3	139	35.2	active
Slc26a10 (GeneID 216441)	2	223	73.5	active
Slc26a10 (GeneID 216441)	4	136	85.6	active
